Results are given in words; binding and its absence hold for the method and conditions named. In cells and extracts the contact can be indirect. Here binding means that the protein was enriched with, or labelled near, the bait; the list need not be complete.
Biological target: integrin β3 (human (endogenous in podocytes)) (UniProt P05106)
Assay: affinity purification with mass spectrometry; human podocyte lysate (25 mM Tris, 150 mM NaCl, 1 mM EDTA, 1% Triton-X) immunoprecipitated 16 h with DynaBeads coated with monoclonal anti-integrin β3 (or β1) antibody; wash 1 M NaCl + 0.1% Tween 20; label-free LC-MS/MS, spectral counting; differential binder if IP counts more than twice those of the other isoform

Chains of the proteins cited; added tags and fusions are not shown. Residues count along the entry.
UniProt P05106, residues 27-788: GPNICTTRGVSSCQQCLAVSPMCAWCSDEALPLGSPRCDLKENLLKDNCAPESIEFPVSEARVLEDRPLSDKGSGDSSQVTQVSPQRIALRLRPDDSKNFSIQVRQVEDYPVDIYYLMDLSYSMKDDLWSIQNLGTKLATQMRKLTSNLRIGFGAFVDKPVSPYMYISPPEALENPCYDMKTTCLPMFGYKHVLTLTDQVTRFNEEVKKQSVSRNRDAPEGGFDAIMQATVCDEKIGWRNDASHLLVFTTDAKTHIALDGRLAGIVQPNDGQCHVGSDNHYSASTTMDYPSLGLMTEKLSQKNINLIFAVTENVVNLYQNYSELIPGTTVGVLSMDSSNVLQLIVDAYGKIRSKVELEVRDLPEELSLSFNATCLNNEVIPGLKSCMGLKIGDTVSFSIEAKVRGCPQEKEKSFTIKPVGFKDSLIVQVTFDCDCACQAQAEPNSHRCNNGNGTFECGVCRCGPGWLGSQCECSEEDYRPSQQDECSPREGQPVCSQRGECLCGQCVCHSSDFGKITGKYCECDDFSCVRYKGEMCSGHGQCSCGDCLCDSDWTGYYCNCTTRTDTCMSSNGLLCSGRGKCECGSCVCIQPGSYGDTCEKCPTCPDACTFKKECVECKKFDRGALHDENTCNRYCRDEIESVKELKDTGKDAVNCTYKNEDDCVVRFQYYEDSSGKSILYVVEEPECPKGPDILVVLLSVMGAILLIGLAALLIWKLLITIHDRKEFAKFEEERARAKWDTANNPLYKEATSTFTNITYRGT
UniProt P15311: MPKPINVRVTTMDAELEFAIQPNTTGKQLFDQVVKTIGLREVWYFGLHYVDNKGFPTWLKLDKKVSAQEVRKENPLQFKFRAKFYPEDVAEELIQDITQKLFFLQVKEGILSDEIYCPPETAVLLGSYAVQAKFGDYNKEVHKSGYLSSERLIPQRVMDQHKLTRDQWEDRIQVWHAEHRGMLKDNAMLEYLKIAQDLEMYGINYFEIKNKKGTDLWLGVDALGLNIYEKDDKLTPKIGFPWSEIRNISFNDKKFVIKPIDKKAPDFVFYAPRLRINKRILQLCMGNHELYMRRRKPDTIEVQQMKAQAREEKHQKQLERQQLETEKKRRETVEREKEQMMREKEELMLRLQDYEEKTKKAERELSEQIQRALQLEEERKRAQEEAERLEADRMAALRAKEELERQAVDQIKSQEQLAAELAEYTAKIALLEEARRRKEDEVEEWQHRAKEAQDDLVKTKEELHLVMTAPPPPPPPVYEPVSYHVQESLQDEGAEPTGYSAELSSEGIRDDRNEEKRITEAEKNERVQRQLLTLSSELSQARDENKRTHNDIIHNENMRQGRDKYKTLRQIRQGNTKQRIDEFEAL
UniProt P35240: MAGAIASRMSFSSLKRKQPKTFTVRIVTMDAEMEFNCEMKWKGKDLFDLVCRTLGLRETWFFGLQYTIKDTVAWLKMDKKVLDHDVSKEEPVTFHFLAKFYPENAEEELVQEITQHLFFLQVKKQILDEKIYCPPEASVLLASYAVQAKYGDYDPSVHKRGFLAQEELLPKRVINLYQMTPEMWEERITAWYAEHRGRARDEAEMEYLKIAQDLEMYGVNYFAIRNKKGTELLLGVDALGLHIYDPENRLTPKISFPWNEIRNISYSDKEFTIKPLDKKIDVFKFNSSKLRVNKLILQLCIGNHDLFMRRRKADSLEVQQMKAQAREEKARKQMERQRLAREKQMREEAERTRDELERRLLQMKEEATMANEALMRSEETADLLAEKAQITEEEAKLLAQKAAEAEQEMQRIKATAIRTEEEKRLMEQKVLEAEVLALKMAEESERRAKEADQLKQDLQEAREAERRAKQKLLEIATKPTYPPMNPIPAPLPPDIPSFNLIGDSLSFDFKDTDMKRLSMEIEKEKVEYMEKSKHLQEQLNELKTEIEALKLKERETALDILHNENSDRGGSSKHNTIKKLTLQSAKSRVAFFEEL
UniProt P26038: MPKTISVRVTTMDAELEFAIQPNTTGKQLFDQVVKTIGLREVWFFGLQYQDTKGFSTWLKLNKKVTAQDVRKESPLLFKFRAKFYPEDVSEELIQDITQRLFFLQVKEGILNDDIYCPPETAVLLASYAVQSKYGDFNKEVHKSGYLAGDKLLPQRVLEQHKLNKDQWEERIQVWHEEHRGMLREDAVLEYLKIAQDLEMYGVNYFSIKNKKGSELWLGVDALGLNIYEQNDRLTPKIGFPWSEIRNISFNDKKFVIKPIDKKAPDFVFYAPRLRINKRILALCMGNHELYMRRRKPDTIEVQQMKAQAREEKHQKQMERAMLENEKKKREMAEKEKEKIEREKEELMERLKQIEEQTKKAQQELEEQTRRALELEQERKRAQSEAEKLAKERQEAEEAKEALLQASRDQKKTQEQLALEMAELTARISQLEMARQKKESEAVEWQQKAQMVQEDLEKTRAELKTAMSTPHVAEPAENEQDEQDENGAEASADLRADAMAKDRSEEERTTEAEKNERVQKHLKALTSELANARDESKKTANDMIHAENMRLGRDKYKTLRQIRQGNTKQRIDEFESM

binding | Substance
binds | ezrin (from UniProt P15311 1-586)
binds | merlin (from UniProt P35240 1-595)
binds | moesin (from UniProt P26038 1-577)
